The text below walks through data of patent US12270064B2 (Guangzhou University, priority 2020, dated 2025).

This data set is described as follows: peptide synthesis. To be noted: whole synthesis.

No end group written: not given here.

Take KYKRQRW: the “purity (crude or final not stated)” value is reported as 95% or more.
